For 5 molecules, binding results are on record in patent US20250034273A1.

By UniProt entry, the sequences of proteins in these tests, tags left out. Residues count along the entry.
UniProt Q9NZQ7, residues 19-290: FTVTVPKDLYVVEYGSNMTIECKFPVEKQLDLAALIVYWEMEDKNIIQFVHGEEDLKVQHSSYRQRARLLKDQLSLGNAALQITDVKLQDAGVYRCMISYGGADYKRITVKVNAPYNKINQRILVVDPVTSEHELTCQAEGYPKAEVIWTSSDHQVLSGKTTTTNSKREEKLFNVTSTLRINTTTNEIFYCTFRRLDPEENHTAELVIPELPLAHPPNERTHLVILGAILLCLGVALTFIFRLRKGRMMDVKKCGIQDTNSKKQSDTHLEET
UniProt Q15116, residues 25-288: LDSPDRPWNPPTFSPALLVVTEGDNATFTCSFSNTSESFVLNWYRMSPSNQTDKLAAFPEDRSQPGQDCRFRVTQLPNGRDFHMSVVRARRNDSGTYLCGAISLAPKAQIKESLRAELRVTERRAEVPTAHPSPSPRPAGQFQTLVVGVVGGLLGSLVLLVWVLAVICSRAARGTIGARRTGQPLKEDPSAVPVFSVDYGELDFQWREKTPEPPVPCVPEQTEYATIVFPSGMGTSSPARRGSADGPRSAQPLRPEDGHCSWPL
UniProt P09758, residues 27-274: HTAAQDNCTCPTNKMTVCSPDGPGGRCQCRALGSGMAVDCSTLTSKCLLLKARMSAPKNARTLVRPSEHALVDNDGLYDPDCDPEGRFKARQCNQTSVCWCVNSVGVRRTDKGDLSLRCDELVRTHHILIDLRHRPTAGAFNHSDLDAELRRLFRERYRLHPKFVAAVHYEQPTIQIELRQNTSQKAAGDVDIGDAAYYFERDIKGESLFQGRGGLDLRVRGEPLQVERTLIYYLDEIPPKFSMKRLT

In experiment [1] the target is PDL1 expressed on HEK293 (293F) cells (UniProt Q9NZQ7). Kind of experiment: flow cytometry on PDL1-expressing 293F cells. A general note: Flow cytometry measures light scatter and fluorescence of single cells or particles in a stream.
For experiment [2] the target is unchanged. Kind of experiment: flow cytometry on PDL1-expressing HEK293 cells.
For experiment [3] the target is unchanged. Kind of experiment: flow cytometry on 293F cells expressing PDL1, detection Anti-mIgG PE.
Experiment [4] has as its target T1, Tigit expressed on HEK293 (293F) cells (UniProt Q495A1).
T1 sequence (looked up): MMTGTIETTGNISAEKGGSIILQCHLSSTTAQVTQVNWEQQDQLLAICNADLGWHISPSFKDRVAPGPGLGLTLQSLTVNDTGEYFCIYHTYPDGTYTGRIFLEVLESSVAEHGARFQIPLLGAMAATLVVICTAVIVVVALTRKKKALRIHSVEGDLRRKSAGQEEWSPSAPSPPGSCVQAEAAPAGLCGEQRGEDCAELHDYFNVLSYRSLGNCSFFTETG
Kind of experiment: flow cytometry on Tigit-expressing 293F cells.

Experiment [5] deals with T1, Tigit expressed on HEK293 (293F) cells. Kind of experiment: flow cytometry on 293F cells expressing Tigit, Binding (% Total).
Experiment [6] shares this target. Kind of experiment: flow cytometry on Tigit-expressing HEK293 cells.
For experiment [7] the target is unchanged. Kind of experiment: flow cytometry on 293F cells expressing Tigit, PE-A.
The target of experiment [8] is PD1 expressed on HEK293F cells (UniProt Q15116). Kind of experiment: cell binding, PD1-expressing HEK293F cells.
The target of another experiment is human Trop2 (human) (UniProt P09758). Kind of experiment: absorbance assay (Net absorbance, Abs 450) on 'Trop2-hFc'; one unprinted antibody concentration.

No constants are given. Whether binding was seen depends on the method and setting. Some binding calls cover weakened binding; strength is not graded here.

B1: humanized anti-PDL1 antibody (Clone 2A6) (antibody, V domains shown)
VH: QVQLVQSGAEVKKPGASVKVSCKASGYTFTEYTMHWVRQAPGQRLEWMGWFFPGSGSIKYSQKFQGRVTITRDTSASTAYMELSSLRSEDTAVYYCARHERGFAYWGQGTLVTVSS
VL: DIVLTQSPASLAVSPGQRATITCRASASSSVSYIHWYQQKPGQPPKLLIYSTSNKDTGVPARFSGSGSGTDFTLTINPVEANDTANYYCHQWSSYPWTFGQGTKVEIK
With B1, the binding result in [1], in experiment [2] and in [3] was “binds” each time.

B2: humanized anti-Tigit antibody (Clone 4F11) (antibody, V domains shown)
VH: QVQLVQSGAEVKKPGASVKVSCKVSGYTFTEYTMHWVRQAPGKGLEWMGGINPNNGGTIYAQKFQGRVTMTEDTSTDTAYMELSSLRSEDTAVYYCARLVLRYWYFDVWGRGTLVTVSS
VL: DIQMTQSPSSLSASVGDRVTITCRASASSNVIYLAWYQQKPGKAPKLLLYDTSRLESGVPSRFSGSGSGTDYTLTISSLQPEDFATYYCQQWSSNPLTFGGGTKVEIK
With B2, the binding result in experiment [4], in experiment [5], in experiment [6] and in experiment [7] was “binds” throughout.

B3: ARB204, CDH17-PD1 bispecific antibody (anti-CDH17 10C12 Fab, anti-PD1 1C8 scFv) (bispecific antibody, human IgG1, kappa)
heavy: EVQLVESGGGLVQPGGSLRLSCAASGFTFSSYAMSWVRQTPGKGLEWVAVIDSNGGSTYYPDTVKDRFTISRDNSKNTLYLQMNSLRAEDTAVYYCSSYTNLGAYWGQGTLVTVSAASTKGPSVFPLAPSSKSTSGGTAALGCLVKDYFPEPVTVSWNSGALTSGVHTFPAVLQSSGLYSLSSVVTVPSSSLGTQTYICNVNHKPSNTKVDKRVEPKSCDKTHTCPPCPAPELLGGPSVFLFPPKPKDTLMISRTPEVTCVVVDVSQEDPEVQFNWYVDGVEVHNAKTKPREEQFNSTYRVVSVLTVLHQDWLNGKEYKCKVSNKGLPSSIEKTISKAKGQPREPQVYTLPPSQEEMTKNQVSLTCLVKGFYPSDIAVEWESNGQPENNYKTTPPVLDSDGSFFLYSRLTVDKSRWQEGNVFSCSVMHEALHNHYTQKSLSLSLGKPAGGGGSEVQLVESGGGLVQPGGSLRLSCAASGFTFSRSTMSWVRQAPGKGLEWVATISGGGLNTYFPDSVKGRFTISRDNSKNTLYLQMNSLRAEDTAVYYCTRNSNSYYFALDYWGQGTLVTVSSGGGGSGGGGSGGGGSEIVLTQSPATLSLSPGERATLSCRASESVDNSGVSFMNWYQQKPGQAPRLLIYIASNQVSGIPARFSGSGSGTDFTLTISSLEPEDFAVYYCQQIKEVPWTFGGGTKVEIK
light: DIQMTQSPSSLSASVGDRVTITCRASQDISGYLNWLQQKPGGAIKRLIYTTSTLDSGVPKRFSGSGSGTDFTLTISSLQSEDFATYYCLQYASSPFTFGGGTKVEIKRTVAAPSVFIFPPSDEQLKSGTASVVCLLNNFYPREAKVQWKVDNALQSGNSQESVTEQDSKDSTYSLSSTLTLSKADYEKHKVYACEVTHQGLSSPVTKSFNRGEC
Regarding B3, the binding result in [8] is “binds”.

B4: h8B5-h3G8v2, bispecific anti-Trop2 (h8B5) / anti-CD3 (h3G8 scFv V2, VL-VH with 3xGS linker) (bispecific antibody, human IgG1, kappa)
heavy: EVQLVESGGGLVQPGGSLRLSCAASGFTFSTYTMSWVRQTPAKGLVWVSTINSDGYNIYYSDSMKGRFTISRDNAKYTLYLQMNSLRAEDTAMYYCARCSYYSYDYFDYWGQGTLVTVSSASTKGPSVFPLAPSSKSTSGGTAALGCLVKDYFPEPVTVSWNSGALTSGVHTFPAVLQSSGLYSLSSVVTVPSSSLGTQTYICNVNHKPSNTKVDKRVEPKSCDKTHTCPPCPAPELLGGPSVFLFPPKPKDTLMISRTPEVTCVVVDVSQEDPEVQFNWYVDGVEVHNAKTKPREEQFNSTYRVVSVLTVLHQDWLNGKEYKCKVSNKGLPSSIEKTISKAKGQPREPQVYTLPPSQEEMTKNQVSLTCLVKGFYPSDIAVEWESNGQPENNYKTTPPVLDSDGSFFLYSRLTVDKSRWQEGNVFSCSVMHEALHNHYTQKSLSLSLGKPAGGGGSDIVMTQSPDSLAVSLGERATINCKSSQSLLNSRTRKNYLAWYQQKPGQPPKLLIYWASTRESGVPDRFSGSGSGTDFTLTISSLQAEDVAVYYCTQSFILRTFGQGTKVEIKGGGGSGGGGSGGGGSQVQLVQSGAEVKKPGASVKVSCKASGYTFTSYYMHWVRQAPGQGLEWMGWIYPENVNTNYAQKFQGRVTMTRDTSISTAYMELSRLRSDDTAVYYCARDSYGSYFFDYWGQGTLVTVSS
light: DIQMTQSPSSLSASVGDRVTITCRASENIDNYLAWYQQKQGKVPKLLIYAATNLADGMPSRFSGSGSGTDFTLTISSLQPEDVATYYCQHYYSNQLTFGQGTKLEIKRTVAAPSVFIFPPSDEQLKSGTASVVCLLNNFYPREAKVQWKVDNALQSGNSQESVTEQDSKDSTYSLSSTLTLSKADYEKHKVYACEVTHQGLSSPVTKSFNRGEC
With B4, in the experiment with human Trop2 (human), the binding entry is “binds”.

B5: h8B5-h3G8v3, bispecific anti-Trop2 (h8B5) / anti-CD3 (h3G8 scFv V3, VH-VL with 6xGS linker) (bispecific antibody, human IgG1, kappa)
heavy: EVQLVESGGGLVQPGGSLRLSCAASGFTFSTYTMSWVRQTPAKGLVWVSTINSDGYNIYYSDSMKGRFTISRDNAKYTLYLQMNSLRAEDTAMYYCARCSYYSYDYFDYWGQGTLVTVSSASTKGPSVFPLAPSSKSTSGGTAALGCLVKDYFPEPVTVSWNSGALTSGVHTFPAVLQSSGLYSLSSVVTVPSSSLGTQTYICNVNHKPSNTKVDKRVEPKSCDKTHTCPPCPAPELLGGPSVFLFPPKPKDTLMISRTPEVTCVVVDVSQEDPEVQFNWYVDGVEVHNAKTKPREEQFNSTYRVVSVLTVLHQDWLNGKEYKCKVSNKGLPSSIEKTISKAKGQPREPQVYTLPPSQEEMTKNQVSLTCLVKGFYPSDIAVEWESNGQPENNYKTTPPVLDSDGSFFLYSRLTVDKSRWQEGNVFSCSVMHEALHNHYTQKSLSLSLGKPAGGGGSQVQLVQSGAEVKKPGASVKVSCKASGYTFTSYYMHWVRQAPGQGLEWMGWIYPENVNTNYAQKFQGRVTMTRDTSISTAYMELSRLRSDDTAVYYCARDSYGSYFFDYWGQGTLVTVSSGGGGSGGGGSGGGGSGGGGSGGGGSGGGGSDIVMTQSPDSLAVSLGERATINCKSSQSLLNSRTRKNYLAWYQQKPGQPPKLLIYWASTRESGVPDRFSGSGSGTDFTLTISSLQAEDVAVYYCTQSFILRTFGQGTKVEIK
light: DIQMTQSPSSLSASVGDRVTITCRASENIDNYLAWYQQKQGKVPKLLIYAATNLADGMPSRFSGSGSGTDFTLTISSLQPEDVATYYCQHYYSNQLTFGQGTKLEIKRTVAAPSVFIFPPSDEQLKSGTASVVCLLNNFYPREAKVQWKVDNALQSGNSQESVTEQDSKDSTYSLSSTLTLSKADYEKHKVYACEVTHQGLSSPVTKSFNRGEC
For B5, the binding entry with human Trop2 (human) is “binds”.
